As usually defined, the AC50 is the midpoint of the concentration-response curve, whichever way the signal moves.

The experiment is described as follows: qHTS Assay to Find Inhibitors of Chronic Active B-Cell Receptor Signaling. As to conditions: ABC-DLBCL IkBa-CBG/CBR reporter, luminescence ratio (green luciferase fused to IkBa over red control in TMD8 lymphoma cells), 4 h. A digest of the protocol:
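Compounds up to 46 uM were incubated four hours with TMD8 cells whose green CBG68 luciferase is fused to IkappaBalpha; red CBR luminescence normalised the signal, and concentration-effect curves were fitted to fusion, red and ratio data.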
In general terms: In qHTS, concentration-response curves come from the screen itself.

[1] abbreviates: measured here: CBR red luminescence, cell number.
The mark [2] stands for this setting: measured here: IkBa-CBG green luminescence.

The list shows a part of the results. Shown are side measurements of this screen, not its main read-out; they come without a call. Compounds called inactive in the main read-out are mostly missing here. Words in brackets tell the shape of the fitted curve; partial curves, single points and poor fits give uncertain potencies.

Take `Cc1nc(-c2ccc(NC(=O)/C=C\C(=O)O)cc2)cs1`: the AC50 under setting [1] is 22.4 µM [falling, single point].
Regarding `CCCCOc1c(Br)cc(/C=N/O)cc1OCC`, the AC50 was 18.4 µM [rising, partial curve] under setting [1] and 16.4 µM [falling, single point] under setting [2].
`COCCNC(=S)N/N=C(\C)c1cccc([N+](=O)[O-])c1`: under setting [2], the AC50 was 18.4 µM [falling, partial curve, poor fit].
With `CCCCCCCNC(=O)C1(CC2CC(c3ccccc3)=NO2)CCN(C(=O)OC(C)(C)C)CC1` (stereo unspecified), the AC50 under setting [1] is 1.3 µM [rising, full curve].
For `O=C(/C=C/c1ccc(Cl)cc1)c1cccnc1`, the AC50 under setting [1] was 7.31 µM [falling, single point].
As to `Cc1cc(Oc2ncccc2[N+](=O)[O-])c2cc(Cl)ccc2n1`, the AC50 under setting [1] was 11.2 µM [falling, single point].
Take `O=C(Nc1ccc2c(c1)N(S(=O)(=O)c1cccs1)CCC2)c1c(F)cccc1Cl`: the AC50 under setting [1] is 4.11 µM [rising, partial curve].
With `COc1cc(-c2nc(-c3ccncc3)no2)cc(OC)c1OC`, under setting [1], the half-maximal activity concentration (AC50) is 1.84 µM [rising, full curve, poor fit].
Turning to `O=C(N1CCCC1)N1CCN(c2ncnc3c(-c4ccc(Cl)cc4)nsc23)CC1`, under setting [1], the concentration at half-maximal activity (AC50) was 10 µM [rising, partial curve, poor fit].
On to `COC(=O)C1=C(N)Oc2cc(C)n(CCN3CCOCC3)c(=O)c2C1c1cccnc1` (stereo unspecified), for which the AC50 under setting [1] was 2.82 µM [rising, full curve, poor fit].
On the same count and under the same terms, the figure for `CCOC(=O)c1c(NC(=O)CN2C(=O)NC3(CCCCC3C)C2=O)sc(C)c1C` (stereo unspecified) is 2.31 µM [falling, single point]; for `C=CCn1c(SCc2c(C(=O)OC)sc(N)c2C(=O)OC)nnc1-c1ccc(Cl)cc1` it is 20.6 µM [falling, single point].
For `COc1ccc(C(=O)C2CCCN(Cc3cccn3-c3ccccn3)C2)c(C)c1` (stereo unspecified), the AC50 under setting [1] was 35.5 µM [falling, single point].
For `Cn1cccc1C(=O)OCC(=O)Nc1ccc2c(c1)OCCO2`, under setting [1], the AC50 is 29.1 µM [rising, single point].
Turning to `COC(=O)[C@H](CCSC)NC(=O)c1cccnc1SC`, under setting [1], the AC50 is 5.62 µM [rising, partial curve].
Still for that read-out and setting: in the case of `CCC/C(O)=C1\C(=O)CC(C)(C)CC1=Nc1ccccc1O` it was 15.8 µM [falling, single point]; in that of `O=C(Nc1ccc(Br)cc1)C1CCCN(C2=NS(=O)(=O)c3ccccc32)C1` (stereo unspecified), 2.59 µM [rising, partial curve, poor fit].
Regarding `c1ccc([C@H]2CNCCN2CCc2cccc3ccccc23)cc1`, the AC50 under setting [1] was 16.4 µM [falling, partial curve, poor fit].
Still for that read-out and setting: in the case of `CC1(C)CC(c2nc(-c3ccc([N+](=O)[O-])cc3)cs2)CCO1` (stereo unspecified) it was 35.5 µM [rising, single point].
`COCCn1c(SCC(=O)N2CCc3ccccc3C2)nc2cc(Cl)ccc2c1=O`: under setting [1], the AC50 was 2.91 µM [falling, partial curve, poor fit].
On to `CC1CCc2[nH]c3ccc(C(=O)N4CCCC(C(F)(F)F)C4)cc3c2C1` (stereo unspecified), for which, under setting [2], the AC50 is 5.17 µM [rising, partial curve, poor fit].
For the compound `CC(C)NC(=O)CSc1c2c(nc3ccccc13)CCCC2`, the AC50 under setting [1] was 6.31 µM [falling, partial curve].
The same measure, in the same setting: the figure for `CC1CCCCN1c1ncnc(N)c1[N+](=O)[O-]` (stereo unspecified) is 8.91 µM [falling, partial curve]; for `CCN(CC)S(=O)(=O)c1ccc(N2CCCCC2)c(NC(=O)c2ccncc2)c1` it is 10 µM [falling, partial curve].
Take `COc1cc(/C=N/NC(=O)c2ccncc2)ccc1OCC(=O)Nc1ccccc1`: the AC50 under setting [1] is 25.1 µM [falling, single point].
`CCC(=O)Nc1c(C(=O)Nc2cccc(OC)c2)oc2ccccc12`: the AC50 under setting [1] is 2 µM [falling, full curve].
Same read-out and setting: in the case of `O=C(/C=C/c1ccc2c(c1)OCO2)Nc1ccc(Cl)cn1` it was 3.55 µM [falling, full curve, poor fit].
Turning to `CCOC(=O)c1cc2n(n1)C(C(F)(F)F)CC(C)N2` (stereo unspecified), the AC50 under setting [1] was 0.366 µM [rising, full curve, poor fit].
As to `CCOC(=O)C1CCN(C(=O)COc2ccc(Cl)cc2C)CC1`, under setting [1], the AC50 was 16.4 µM [falling, partial curve].
`COc1ccccc1-c1ccc(SCc2ccccc2F)nn1`: the half-maximal activity concentration (AC50) under setting [1] is 7.08 µM [falling, partial curve].
On to `Cc1ccc(-n2nc3c(=O)n(CCCC(=O)NCc4cccc(Cl)c4)nc(C)c3c2C)cc1`, for which the AC50 under setting [1] was 10 µM [falling, partial curve, poor fit].
As for `CCc1cc2cc(C(=O)Nc3ccc(F)cc3)sc2s1`, under setting [1], the AC50 was 9.2 µM [falling, partial curve].
Take `CCOC(=O)c1sc(N)c(C(=O)OC)c1C`: under setting [1], the half-maximal activity concentration (AC50) is 10 µM [rising, partial curve].
As to `CN(Cc1ccc(F)cc1)C(=O)c1ccc(NC(=O)CC2SC(N3CCCC3)=NC2=O)cc1` (stereo unspecified), the concentration at half-maximal activity (AC50) under setting [1] was 29.1 µM [rising, single point].
Take `COCCN(Cc1ccccc1)C(=O)c1cccc(S(=O)(=O)N2CCCc3ccccc32)c1`: the AC50 under setting [1] is 29.1 µM [falling, single point].
With `CCCC[n+]1ccc(-c2nc3ccc([N+](=O)[O-])cc3[nH]2)cc1`, the AC50 under setting [1] was 18.4 µM [falling, single point].
Still for that read-out and setting: in the case of `CN1CCN(c2nc(-c3ccccc3)c3cc(Cl)ccc3n2)CC1` it was 7.08 µM [falling, partial curve, poor fit].
Turning to `Cc1ccc(C(=O)Nc2nc3ccccc3n2CCN2CCCC2)cc1`, the AC50 under setting [1] is 22.4 µM [falling, single point].
The same measure, in the same setting: in the case of `COc1ccc2c(Cl)c(C(=O)NC3CCS(=O)(=O)C3)sc2c1` (stereo unspecified) it was 20 µM [rising, partial curve, poor fit]; in that of `O=[N+]([O-])c1ccc(NC(=S)NCCc2ccccc2)cc1`, 2.31 µM [rising, partial curve, poor fit]; in that of `Cc1ccc(NC(=O)c2ccc(C)c(S(=O)(=O)N3CCCCCC3)c2)cc1`, 35.5 µM [falling, single point].
In the case of `COCc1cc(=O)n2[nH]c(-c3ccsc3-n3c(C)ccc3C)cc2n1`, the AC50 under setting [1] was 0.731 µM [rising, full curve, poor fit].
In the case of `COc1cccc(-c2nc(CS(=O)(=O)CC(=O)Nc3ccc(F)cc3F)c(C)o2)c1`, the AC50 under setting [1] was 22.4 µM [falling, single point].
Consider `CC(=O)CC(=O)Nc1ccccc1NC(C)=O`, for which the AC50 under setting [1] was 6.51 µM [rising, single point].
Still for that read-out and setting: the figure for `O=C(CC1Sc2ccccc2NC1=O)Nc1cccc(C(F)(F)F)c1` (stereo unspecified) is 7.94 µM [rising, partial curve].
In the case of `Cc1cccc(-c2cccc(NC(=O)C3CCCN(C(=O)c4csc(C)n4)C3)c2)c1` (stereo unspecified), the AC50 under setting [1] is 31.6 µM [falling, single point].
For `COCCn1c(C(F)(F)F)ccc(NC(=O)c2ccccc2)c1=O`, the AC50 under setting [1] was 0.112 µM [rising, full curve, poor fit].
Regarding `CCOC(=O)c1cnc(SCC(=O)Nc2cc(OC)cc(OC)c2)nc1N`, the AC50 under setting [1] is 35.5 µM [falling, single point].
For `O=C(CSc1nc2ccccc2c(=O)n1C1CC1)NCc1ccccc1`, under setting [1], the AC50 is 5.62 µM [falling, partial curve, poor fit].
For `CC(C)Nc1ncnc2c1cnn2-c1ccccc1`, the AC50 under setting [1] is 9.2 µM [falling, partial curve].
Take `CCCOc1ccccc1-c1nc(SCCC(=O)O)n[nH]1`: the AC50 under setting [1] was 11.6 µM [falling, partial curve, poor fit].
In the case of `Nc1nc(N)nc(-c2cc(F)ccc2O)n1`, the concentration at half-maximal activity (AC50) under setting [2] was 4.11 µM [rising, partial curve, poor fit].
In the case of `CCc1ccc(-c2ccc(SCC(=O)Nc3nnc(C)s3)nn2)cc1`, the AC50 under setting [1] was 2.82 µM [falling, full curve].
As to `CCOC(=O)c1c(C)n(C)c2ccc(OC)c(NC(=O)CN3CCN(Cc4ccccc4)CC3)c12`, the AC50 under setting [1] was 0.708 µM [rising, full curve, poor fit].
Take `CCO[C@@H]1OC(C(N)=O)=C[C@H](c2coc3ccccc3c2=O)[C@H]1CCCO`: the AC50 under setting [1] is 12.6 µM [rising, single point].
Take `CCOC(=O)C(=CNNc1ccsc1C(=O)OC)C(=O)OCC`: the AC50 under setting [1] was 17.8 µM [falling, single point].
As to `CN(C)c1nc(SCCOC(=O)c2ccccc2)nc(N(C)C)n1`, under setting [1], the AC50 is 2.91 µM [rising, full curve, poor fit].
On to `Oc1ccc(/C=N/N=C/c2ccc(O)cc2)cc1`, for which the AC50 under setting [1] is 1.12 µM [falling, partial curve, poor fit].
Turning to `O=C(NC(=S)Nc1cc(C(F)(F)F)ccc1N1CCOCC1)c1sc2ccccc2c1Cl`, the AC50 under setting [1] was 18.4 µM [falling, single point].
Still for that read-out and setting: in the case of `COc1ccccc1C(=O)COC(=O)/C=C/c1ccccc1` it was 15.8 µM [falling, single point]; in that of `Cn1c(=O)c2[nH]c(-c3ccccc3Cl)c(O)c2n(C)c1=O`, 3.66 µM [falling, single point].
Take `Cc1cc2nc(-c3ccc(SCC(=O)Nc4ccc(S(=O)(=O)N5CCCC5)cc4)nc3)[nH]c2cc1C`: the AC50 under setting [1] is 1.03 µM [falling, full curve].
On to `CCCCC(CCC(=O)Nc1ccn(-c2ccccc2)n1)C(=O)O` (stereo unspecified), for which the AC50 under setting [1] was 6.31 µM [rising, single point].
For the compound `COc1ccc(OC(=O)Nc2ccccc2)cc1`, under setting [1], the AC50 is 23.1 µM [falling, single point].
Consider `CC(C)(C)C(=O)OCc1nc(-c2ccc(Cl)cc2)cs1`, for which the AC50 under setting [1] was 11.2 µM [rising, partial curve, poor fit].

These data come from PubChem BioAssay AID493014 (National Center for Advancing Translational Sciences (NCATS), 2011).
